Our source for the binding values is paper doi:10.1101/2023.04.11.536274.

No constants are given. Whether binding was seen depends on the method and setting. Some entries that bind do so weakly or less than the wild type.

The assay deals with myosin regulatory light chain (RLC) (human (endogenous in ventricular tissue)) (UniProt P10916). In words: cryo-EM structure.

B1: myosin regulatory light chain (RLC) (protein, UniProt P10916 1-166)
chain: MAPKKAKKRAGGANSNVFSMFEQTQIQEFKEAFTIMDQNRDGFIDKNDLRDTFAALGRVNVKNEEIDEMIKEAPGPINFTVFLTMFGEKLKGADPEETILNAFKVFDPEGKGVLKADYVREMLTTQAERFSKEEVDQMFAAFPPDVTGNLDYKNLVHIITHGEEKD
Regarding B1, the binding entry is “binds”.
